# Library screen at single concentrations

Sequences of proteins named here, by UniProt entry; tags and fusion partners are left off.
UniProt P9WFT3, whole entry: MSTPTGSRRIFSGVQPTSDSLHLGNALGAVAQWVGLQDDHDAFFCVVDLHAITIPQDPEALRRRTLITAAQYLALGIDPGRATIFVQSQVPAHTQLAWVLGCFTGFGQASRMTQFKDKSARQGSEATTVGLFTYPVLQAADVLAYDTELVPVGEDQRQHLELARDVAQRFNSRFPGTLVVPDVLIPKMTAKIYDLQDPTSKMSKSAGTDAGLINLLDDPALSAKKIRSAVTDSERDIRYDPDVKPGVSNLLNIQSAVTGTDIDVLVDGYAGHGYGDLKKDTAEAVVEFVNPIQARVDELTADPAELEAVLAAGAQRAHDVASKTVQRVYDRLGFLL

Measurements from “University of Dundee, Small-Polar-MMV Screening Library” (2021), ChEMBL document CHEMBL3988442.

A: 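Enzyme assay of tryptophanyl-tRNA synthetase; the read-out is not stated. Target: Tryptophan-tRNA ligase, Mycobacterium tuberculosis (UniProt P9WFT3). Compounds at 10 µM. Higher most likely means stronger inhibition; the record gives no direction and few retests gave an IC50. Of about 65,000 compounds tested this way, about 64 (0.098%) reached 50% or more in at least one test.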
B: 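Cell assay of Leishmania donovani living inside macrophages; the read-out is not stated. Tested at 30 µM. The record gives no direction; compounds that gave an IC50 in retests scored well above the rest, so higher reads as stronger inhibition. About 69,000 compounds were tested under these conditions; 1.5% (about 1,000) showed 50% or more at least once.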

Results are given as percent effect.
How 0% and 100% were set is not recorded. Most values in the screen are low, and negative values occur.
The compounds are a random part of those screened.
Two or more numbers in one place are separate tests of the same structure; such repeats can differ widely.
A dash means the value is not listed here; it may have been measured.

Compound | A | B
CN(C)c1ccc(C(=O)N2CCCC2c2noc(C3CC3)n2)nn1 (stereo unspecified) | 6.386 | -2.928
[H][C@@]12COC[C@]1([H])[C@@H](OCc1cccnc1)CN2C(=O)C1CCOCC1 | - | -5.967
Cc1nccn1CCC1CCCCN1C(=O)c1ccc2nonc2c1 (stereo unspecified) | 5.416 | 20.08
Cc1n[nH]c(C2CN(C(=O)Cn3ccccc3=O)CCO2)n1 (stereo unspecified) | -3.216 | 4.988
CCn1ccnc1CN1CCN(CC(O)c2ccc(OC)cc2)CC1 (stereo unspecified) | 15.5 | 25.61
CC(=O)N1CCCC2(CN(Cc3ccc(C)s3)CCO2)C1.O=C(O)C(F)(F)F (stereo unspecified) | - | 10.55
CCCc1nnsc1C(=O)N1CCN(CC(O)c2ccco2)CC1.Cl (stereo unspecified) | - | 11.08 and 5.664
COC(C(=O)N1CCCN(Cc2cscn2)CC1)c1ccccc1 (stereo unspecified) | 0.7862 | -5.184
CC(NC(=O)Cc1cccs1)c1nnc2n1CCC2 (stereo unspecified) | -0.8892 | 28.92
Cc1nn(C)cc1CN(C)c1nccc(-c2cn(C)nc2C)n1 | 0.3549 | 29.96
COCCCN(C)c1ncccc1I | 12.69 | 7.797
Cc1cccc(C(=O)N2CCC[C@]3(C[C@@H](OCC4CC4)CO3)C2)n1.O=C(O)C(F)(F)F | - | 22.01
Cc1ccc(NC2COC3(CCN(CC(C)C)CC3)C2)nn1.O=C(O)C(F)(F)F (stereo unspecified) | - | 3.731
[H][C@@]12CCN(C(=O)CCc3ccc(OCC)cc3)C[C@]1([H])OCCNC2=O | - | 19.58
CC(C)OCCN1CCC(Nc2ncc(Br)cn2)CC1 | 1.211 | 18.49
O=C([C@@H]1COC[C@H]2CN(c3ccncn3)C[C@H]21)N1CCCC1 | 8.481 | -
COCCN(Cc1cccs1)C(=O)c1ccc(=O)n(C)c1 | -0.3549 | 23.63
CCc1nccn1C1CCCN(C(=O)CCCNc2ncccn2)C1 (stereo unspecified) | 4.191 | -8.947
NC(=O)NCCC(=O)NCc1cccnc1N1CCc2ccccc2C1 | 1.006 | 14.17
CC(C)N1CCC(c2nccnc2Nc2cnccn2)CC1 | 13.79 | -11.68
CCCOC(C)Cn1ccc2[nH]c(=O)c(C#N)cc2c1=O (stereo unspecified) | 7.344 | 7.691
Cc1noc(C2CCN(C(=O)c3cc(Br)ccc3F)CC2)n1 | -1.221 | 4.363
Cc1n[nH]c(C)c1NC(=O)CN1CCN(c2nccs2)C(C)C1 (stereo unspecified) | -2.804 | 16.48
Cc1cc(C)nc(Nc2nccnc2C2CCCN(CCO)C2)n1 (stereo unspecified) | -12.95 | -19.95
Cc1ccccc1CN1CCCC1c1cccc(Nc2nccs2)n1 (stereo unspecified) | -3.329 | 38.39
NCCc1n[nH]c(=O)n1-c1cccc2ccccc12 | -6.28 | -1.188
CC(C)c1cc2c(O)nc(CSCC(=O)NCc3ccccn3)nc2s1 | -1.104 | 24.24
CCN(CC)c1ccc(CNC(=O)c2ccccn2)cn1 | 13.17 | 1.337
Cn1cc(CN2CCCC(c3nccnc3-c3cccc(F)c3)C2)cn1 (stereo unspecified) | 13.97 | -26.81
CCOc1ccc(NC(=O)N2CCNC(=O)C2)c(C(F)(F)F)c1 | -3.482 | -5.154
Fc1ccc(-c2c[nH]c([C@@H]3COCCN3)n2)cc1 | -3.89 | 21.12
CCN(CC)C1(Cc2cc(CC(C)C)on2)COC1 | -2.365 | 7.862
CCc1cc(C)nc(N2CCN(C(C)c3nc(C)no3)CC2)n1 (stereo unspecified) | -2.89 | -6.994
CCNc1nc(-c2cccnc2)c(-c2ccnc(NCCO)n2)s1 | - | -6.608 and -1.951
Cc1ccc(S(=O)(=O)N2CSCC2C(=O)NCC(F)(F)F)cc1C (stereo unspecified) | -5.751 | 15.49
CNC(=O)c1cccc(CNC2CCSc3c(Cl)cccc32)c1 (stereo unspecified) | 1.1 | 16.97
CCn1c(N)nc2cc(C(=O)NCCc3sccc3C)cnc21 | -1.212 | 4.152
O=C(CC1CCCO1)Nc1ccc2c(ccn2CCN2CCOCC2)c1 (stereo unspecified) | -0.9828 | 23.97
CCCS(=O)(=O)N1CCN(Cc2ccco2)CC1 | -9.443 | -
COCCNC(=O)C1CN(Cc2cccnc2)Cc2ccnn2C1.O=C(O)C(F)(F)F.O=C(O)C(F)(F)F.O=C(O)C(F)(F)F (stereo unspecified) | - | 25.9

Once more, the final 4:

| Compound | A | B |
|---|---|---|
| `CCn1c(N)nc2cc(C(=O)NCCc3sccc3C)cnc21` | -1.212 | 4.152 |
| `O=C(CC1CCCO1)Nc1ccc2c(ccn2CCN2CCOCC2)c1` (stereo unspecified) | -0.9828 | 23.97 |
| `CCCS(=O)(=O)N1CCN(Cc2ccco2)CC1` | -9.443 | - |
| `COCCNC(=O)C1CN(Cc2cccnc2)Cc2ccnn2C1.O=C(O)C(F)(F)F.O=C(O)C(F)(F)F.O=C(O)C(F)(F)F` (stereo unspecified) | - | 25.9 |